Data reported in PubChem BioAssay AID1645870 (National Center for Advancing Translational Sciences (NCATS), 2021).
The campaign covered roughly 59,000 compounds. About 1,500 (2.5%) were called active. The source calls these results inconclusive, neither active nor inactive. The call rests on the fitted dose curve; in most records, active means well fitted inhibition curve with a large enough effect; inconclusive means small, poorly fitted or top-dose-only effect; inactive means flat fitted curve, though single readings scatter.

The chains behind the UniProt entries cited, without tags or fusion partners.
UniProt Q9BV86, whole entry: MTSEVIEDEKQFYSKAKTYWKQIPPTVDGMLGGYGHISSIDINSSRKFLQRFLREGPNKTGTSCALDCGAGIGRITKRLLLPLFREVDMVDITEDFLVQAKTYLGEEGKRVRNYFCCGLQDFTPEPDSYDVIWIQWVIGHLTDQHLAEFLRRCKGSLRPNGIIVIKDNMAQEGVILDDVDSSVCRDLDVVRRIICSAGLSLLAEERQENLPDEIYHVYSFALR

Target: N-terminal Xaa-Pro-Lys N-methyltransferase 1 (Homo sapiens) (UniProt Q9BV86)
Assay: Primary qHTS for Inhibitors of N-terminal methyltransferase 1 (NTMT1): MTaseGlo Assay; further: nearly all actives have a fitted effect of over 65% in size
Settings: NTMT1 MTase-Glo SAH luminescence, purified enzyme
Text: Assay Submitter (PI): Rong Huang Ph.D.
Purdue University, West Lafayette, IN 47907
The N-terminal methytransferase 1 is the first methyltransferase that methylates protein alpha-N-amines and plays an important role in regulating cell mitosis, chromatin interactions and DNA repair. It is observed to be over-expressed in various cancer patient tissues like malignant melanoma and colorectal cancer tissues. Knockdown of NTMT1 in cancer cells causes cell mitotic defects and enhances sensitivity to DNA damaging chemotherapeutics. […] These critical cellular processes in which NTMT1 is implicated, coupled with emerging links to cellular dysfunction, strengthen the inference that NTMT1 is a compelling novel anticancer target. […] To address this unmet need, a panel of assay is created and established to enable quantitative high-throughput screening (qHTS) for novel, potent, and selective small molecule NTMT1 inhibitors. […]
MTaseGlo Assay is a luminescence screen that measure the activity of methyltransferases based on the reaction product S-adenosyl homocysteine (SAH). […]
8; Reagent; 5 uL; Dispense 5 uL of 1x MTase-Glo Detection Solution (R) to allow for ADP to be converted to ATP which was then detected with a luciferase reaction. […]
11; Detection; Luminescence; Plates were read on ViewLux detector (PerkinElmer). […]
Potency means the concentration at half of the fitted maximal effect.

Row | SMILES | Potency
1 | CCC(=O)N(c1ccccc1)C1CCNCC1 | inconclusive: 10 µM
